# Data as given in PubChem BioAssay AID2685 (National Center for Advancing Translational Sciences (NCATS), 2010).
# Out of some 320,000 compounds screened, about 2,100 (0.66%) were called active. Inconclusive results, whose numbers are uncertain, are shown with a selection of clear calls. Calls come from the whole dose curve; as a rule, active = well fitted inhibition curve with a large enough effect in the signal ratio, with a control signal flat (not every such curve was filed as active); inconclusive = small, poorly fitted or top-dose-only effect, or effect the other way, or a change in a side signal; inactive = flat fitted curve, though single readings scatter; the % refers to the signal ratio. Potencies of inconclusive entries are doubtful fits and often do not repeat.
# Test: qHTS Assay for Lipid Storage Modulators in Drosophila S3 Cells
# Conditions: BODIPY lipid droplet fluorescence, 18-24 h, cells fed with added oleic acid; lipid storage change, negative = inhibition: at 46.1 µM (top of the series) unless noted
# Outline: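 Laser-scanning cytometry quantifies lipid droplet accumulation (500–530 nm total intensity; droplet/cell object ratio) in oleic acid-fed (400 uM added) Drosophila S3 cells treated with a concentration series. 20 uM Triacsin C defined 100% inhibition.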
# % is set by controls: 0 for no effect and ±100 for the full control effect; potency is the fitted concentration of half-maximal effect.
SMILES,"lipid storage change, negative = inhibition",Potency
CC(C)(C)SCCNS(=O)(=O)c1ccc(Cl)cc1,inconclusive: -44.9%,–
O=C(CSc1nnc(NC(=O)C2CC(=O)N(c3ccc(F)cc3)C2)s1)NCc1ccco1 (stereo unspecified),inconclusive: 3.96%,–
CCOC(=O)N1CCN(S(=O)(=O)c2cc3c(cc2C)NC(=O)CO3)CC1,inconclusive: 20.2%,–
COc1ccc(NC(=O)C2CCN(S(C)(=O)=O)CC2)c(OC)c1,inconclusive: 14.6%,–
O=C(NCC1CCCO1)c1cccc2ccccc12 (stereo unspecified),–,"inconclusive: 29.1 µM [falling, single point]"
CSc1ncc(C(=O)Nc2ccc(C(C)=O)cc2)c(-c2ccccc2)n1,inconclusive: -21.3%,–
CCN(CC)S(=O)(=O)c1ccc2oc(C(=O)Nc3ccc(OC)cc3OC)c(C)c2c1,inconclusive: 72.6%,–
O=C(C(=O)N1CCOCC1)c1cn(CC(=O)N2CCCCC2)c2ccccc12,inconclusive: -23.9%,–
O=C(NC1CCCCC1)C1CCN(c2cnccn2)CC1,–,"inconclusive: 0.0046 µM [activator, full curve]"
Cc1sc2nc(SC(C)C)nc(N)c2c1C,inconclusive: 13.1%,–
COc1ccc(CCNc2ccc(C(CC(N)=O)NC(=O)c3ccc(Br)cc3)cc2[N+](=O)[O-])cc1 (stereo unspecified),–,"inconclusive: 8.2 µM [activator, partial curve]"
COc1ccc(C(CNC(=O)c2cc(=O)[nH]c3ccccc23)N2CCCC2)cc1 (stereo unspecified),–,"inconclusive: 2.91 µM [falling, single point]"
Cc1csc(N2CCc3ccccc32)n1,inconclusive: 9.74%,–
CSc1ccccc1NC(=O)CN(C)C(=O)Cc1c(F)cccc1Cl,inconclusive: -8.4%,–
COc1ccccc1Sc1nc(-c2ccccn2)ncc1OC,–,"inconclusive: 14.6 µM [activator, single point]"
CCOC(=O)C1CCCN(C2=NC(=O)/C(=C/c3ccc(OC)cc3OC)S2)C1 (stereo unspecified),inconclusive: 30.9%,–
O=C(c1ccco1)N(Cc1cccc(Cl)c1)C1CCS(=O)(=O)C1 (stereo unspecified),inconclusive: -16.6%,–
O=C(/C=C/c1ccc(F)cc1)NC(=S)N1CCN(c2ccccn2)CC1,inconclusive: 2.78%,–
COC(=O)c1cccc(NC(=O)CCc2ccccc2)c1,inconclusive: 16.9%,–
Cc1cccc(-c2noc(CCCOc3ccc(Cl)cc3Cl)n2)c1,–,"inconclusive: 6.51 µM [activator, single point]"
CC1CN(CC(=O)c2c(N)n(Cc3ccccc3)c(=O)n(C)c2=O)CC(C)O1 (stereo unspecified),inconclusive: 17.9%,–
CC1CCCN(C(=O)c2ccc3c(=O)n(Cc4ccc5c(c4)OCO5)c(=S)[nH]c3c2)C1 (stereo unspecified),inconclusive: -0.572%,–
CCOC(=O)C1CCN(C(=O)c2oc3ccc(S(=O)(=O)N4CC(C)CC(C)C4)cc3c2C)CC1 (stereo unspecified),inconclusive: 20.4%,–
CCN(c1ccc(C(=O)CN2C(=O)NC3(CCOc4ccccc43)C2=O)cc1)S(C)(=O)=O (stereo unspecified),–,"inconclusive: 6.51 µM [cytotoxic, partial curve, poor fit]"
CCCNC(=O)Cc1c(C)oc2ccccc12,inconclusive: 49.7%,–
Cc1ccc(N2C(=O)C3C4C=CC(CC4)C3C2=O)cc1Cl (stereo unspecified),inconclusive: 36.5%,–

# Ordered by SMILES length (descending): 3 of the compounds above
SMILES,"lipid storage change, negative = inhibition",Potency
CCOC(=O)N1CCN(S(=O)(=O)c2cc3c(cc2C)NC(=O)CO3)CC1,inconclusive: 20.2%,–
COC(=O)c1cccc(NC(=O)CCc2ccccc2)c1,inconclusive: 16.9%,–
COc1ccccc1Sc1nc(-c2ccccn2)ncc1OC,–,"inconclusive: 14.6 µM [activator, single point]"

# The list continues.

SMILES,"lipid storage change, negative = inhibition",Potency
CC(NS(=O)(=O)/C=C/c1ccccc1)c1ccccc1 (stereo unspecified),inconclusive: 17.3%,–
COc1ccc(N2CCN(C(=O)COc3ncnc4ccccc34)CC2)cc1,inconclusive: 8.99%,–
CCC(CC)COC(=O)C(C#N)c1nc2ccccc2nc1N1CCOCC1 (stereo unspecified),inconclusive: 22.8%,–
Cc1cc(OC(C)C(=O)NCC2CCC(C(=O)O)CC2)c2c(C)c(C)c(=O)oc2c1 (stereo unspecified),inconclusive: -0.698%,–
Cc1cc(OCC(=O)Nc2cc(C(C)(C)C)on2)ccc1[N+](=O)[O-],–,"inconclusive: 29.1 µM [falling, single point]"
Nn1c(-c2ccccc2)nc2cc(Cl)ccc2c1=O,inconclusive: 15.5%,–
Cc1cc(C)n(CCC(=O)N=Nc2c(O)[nH]c3ccccc23)n1,inconclusive: 24.3%,–
O=C(CCN1CCN(Cc2ccccc2)CC1)NNC(=O)Nc1cccc(Cl)c1,–,"inconclusive: 20.6 µM [falling, single point]"
Nc1nc2ccc([N+](=O)[O-])cc2[nH]1,–,"inconclusive: 0.146 µM [activator, full curve, poor fit]"
O=C(C1CCC1)N1CCc2cc(S(=O)(=O)NCc3ccco3)ccc21,–,"inconclusive: 18.4 µM [activator, partial curve]"
COc1ccc(S(=O)(=O)NNC(=O)c2cc3c4ccccc4n(C)c3s2)cc1,inconclusive: -87.1%,–
O=C(CCNC(=O)c1ccccc1Cl)NCC(c1ccc(F)cc1)N1CCOCC1 (stereo unspecified),inconclusive,–
COc1ccc(NC(=O)CSc2nc(C)cs2)cc1OC,inconclusive: 43.1%,–
CCn1c(-c2sc(-c3ccccc3)nc2C)n[nH]c1=S,inconclusive: 149%,–
CN(CC(=O)NCCc1ccccc1)S(=O)(=O)c1cnc[nH]1,inconclusive: -0.32%,–
Cc1ccc(Cn2cc(/C=C/C(=O)O)c(-c3ccccc3)n2)cc1,inconclusive: -24.4%,–
CCOC(=O)C1=NN(C(=O)Cc2ccccc2)C(O)(c2ccc(Cl)cc2)C1 (stereo unspecified),inconclusive: -9.84%,–
CC1(C)CC(=O)c2cnc(NC(=O)CSC(=S)N3CCCCC3)nc2C1,inconclusive: 9.85%,–
c1ccc(N(c2ccccc2)c2nc(N3CCCC3)nc(-n3ccnc3)n2)cc1,–,"inconclusive: 29.1 µM [cytotoxic, single point]"
CCOC(=O)CSC1=NC(=O)/C(=C\c2ccc(Cl)cc2)S1,inconclusive: -35.8%,–
Cc1cccc(C)c1NC(=O)CN(C)C(=O)CCC(=O)c1ccccc1,–,"inconclusive: 0.146 µM [activator, partial curve, poor fit]"
Cc1ccc(S(=O)(=O)NCc2ccccc2)cc1C(=O)NCc1ccccn1,inactive,–
CC(C)(C)NC(=S)NCc1ccncc1,inconclusive: -20.8%,–
Cc1cnc(NC(=O)c2sc3ccccc3c2Cl)s1,inconclusive: 26.7%,–
CCN(CC(=O)Nc1ccccc1C(F)(F)F)C(=O)CCc1nc2sc3c(c2c(=O)[nH]1)CCCC3,inconclusive: 17.1%,–
